# Results are given in words; binding and its absence hold for the method and conditions named. Some binding calls cover weakened binding; strength is not graded here.
# Amino acid sequences for entries named in this document (tags omitted). Residues count along the entry.
# UniProt P08069, residues 31-1367: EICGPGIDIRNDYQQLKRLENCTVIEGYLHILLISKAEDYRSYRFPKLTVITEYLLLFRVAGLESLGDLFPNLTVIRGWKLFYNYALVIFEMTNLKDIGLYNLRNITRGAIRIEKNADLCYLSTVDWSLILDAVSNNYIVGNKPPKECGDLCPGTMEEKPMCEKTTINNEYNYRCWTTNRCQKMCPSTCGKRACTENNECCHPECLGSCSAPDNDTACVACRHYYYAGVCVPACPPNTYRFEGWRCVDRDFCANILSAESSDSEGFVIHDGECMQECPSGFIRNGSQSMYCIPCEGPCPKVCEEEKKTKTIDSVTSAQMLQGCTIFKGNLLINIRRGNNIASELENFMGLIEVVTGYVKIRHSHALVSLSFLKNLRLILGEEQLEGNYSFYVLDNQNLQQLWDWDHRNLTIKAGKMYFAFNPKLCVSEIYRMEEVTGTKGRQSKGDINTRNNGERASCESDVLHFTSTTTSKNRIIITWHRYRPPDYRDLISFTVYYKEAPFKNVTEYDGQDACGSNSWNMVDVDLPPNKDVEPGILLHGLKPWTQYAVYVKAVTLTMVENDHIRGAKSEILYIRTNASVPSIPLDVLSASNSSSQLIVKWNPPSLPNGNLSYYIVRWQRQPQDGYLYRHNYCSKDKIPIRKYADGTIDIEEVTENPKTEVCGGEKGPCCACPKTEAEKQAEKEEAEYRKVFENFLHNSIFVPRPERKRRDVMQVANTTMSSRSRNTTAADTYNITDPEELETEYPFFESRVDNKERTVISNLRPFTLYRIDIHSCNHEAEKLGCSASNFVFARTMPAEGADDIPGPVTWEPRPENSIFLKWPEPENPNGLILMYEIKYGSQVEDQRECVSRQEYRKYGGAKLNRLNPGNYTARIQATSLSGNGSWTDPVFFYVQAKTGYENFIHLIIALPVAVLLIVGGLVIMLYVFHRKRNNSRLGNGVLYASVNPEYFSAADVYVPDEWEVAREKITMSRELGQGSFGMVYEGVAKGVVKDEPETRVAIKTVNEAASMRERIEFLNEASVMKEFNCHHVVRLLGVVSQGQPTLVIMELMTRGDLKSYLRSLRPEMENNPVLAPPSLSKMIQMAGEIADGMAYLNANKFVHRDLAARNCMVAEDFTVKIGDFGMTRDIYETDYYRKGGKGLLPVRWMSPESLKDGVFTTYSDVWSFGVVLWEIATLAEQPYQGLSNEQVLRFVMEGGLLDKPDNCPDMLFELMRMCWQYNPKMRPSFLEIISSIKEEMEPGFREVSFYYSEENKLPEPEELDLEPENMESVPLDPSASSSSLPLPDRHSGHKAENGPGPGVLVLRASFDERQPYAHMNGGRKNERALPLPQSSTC
# UniProt P01344, residues 25-91: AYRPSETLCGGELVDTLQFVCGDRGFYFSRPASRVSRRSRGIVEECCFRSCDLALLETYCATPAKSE
# Assays:
# [1] = biological target: human IGF-IR (hIGF-IR) from membrane lysate of NIH 3T3 cells stably transfected with the human IGF-IR cDNA, immobilized (human) (UniProt P08069); assay: competition of 100 pM [125I]-IGF1 binding to immobilized hIGF-IR
# [2] = biological target: human IGF-IR (hIGF-IR) from membrane lysate of NIH 3T3 cells stably transfected with the human IGF-IR cDNA, immobilized (human) (UniProt P08069); assay: radioligand competition: unlabeled IGF2 varied against 100 pM [125I]-IGF1 on hIGF-IR captured by mAb 17-69 on Protein A FlashPlate
substance,measurement,setting,value
IGF2 (from UniProt P01344 25-91) (ligand),binding,[1],binds
same,binding,[2],binds

# From patent US20090265797A1 (PIERRE FABRE MEDICAMENT, published 2009)
